This test can be described thus: qHTS Assay for Lipid Storage Modulators in Drosophila S3 Cells.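 On cell number change: cells counted by Cell Tracker Red CMTPX staining in the red channel.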 The note with it: BODIPY lipid droplet fluorescence, 18-24 h; for cell number change: measured here: cell count max response, cells fed with added oleic acid. In a few lines: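 Drosophila S3 cells loaded with oleic acid (400 uM, as added) and compounds at several concentrations; lipid droplets imaged by 488-nm laser-scanning cytometry, 500–530 nm intensity and object ratio to cell channel. Percent activity normalized to 20 uM Triacsin C.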

The mark [1] stands for this setting: measured here: cell number channel AC50, cells fed with added oleic acid.
The mark [2] stands for this setting: measured here: lipid fluorescence (Fed channel) AC50, cells fed with added oleic acid.

This is one part of the list. Further columns of the screen follow, without active or inactive calls. Compounds called inactive in the main read-out are mostly missing here. Words in brackets tell the shape of the fitted curve; partial curves, single points and poor fits give uncertain potencies.

As to `CCOC(=O)Nc1ccc2nc3n(c(=O)c2c1)CCCCC3`, the cell number change is -109%. The AC50 under setting [1] was 29.1 µM [falling, single point]. Moreover, under setting [2], the concentration at half-maximal activity (AC50) is 29.1 µM [falling, single point].
As to `CN1/C(=C\C(=O)COC(=O)CNC(=O)c2ccc3ccccc3c2)C(C)(C)c2ccccc21`, the cell number change amounted to 2.99%. In addition, under setting [2], the AC50 is 23.1 µM [falling, single point].
In the case of `Cc1nc([N+](=O)[O-])c(Sc2nc3ccccc3n2C)n1Cc1ccccc1`, the cell number change is -10.4%. Further, the AC50 under setting [2] was 0.206 µM [falling, full curve, poor fit].
As to `Cc1cc(S(=O)(=O)N2CCCc3ccccc32)ccc1-n1cnnn1`, the cell number change was 10.5%. Further, the AC50 under setting [1] was 0.082 µM [rising, partial curve, poor fit].
Turning to `O=C(COC(=O)c1ccc(O)cc1)Nc1ccc(N2CCCCC2)cc1`, the cell number change is -1.54%. Besides, the AC50 under setting [2] was 0.411 µM [rising, full curve, poor fit].
As for `Cc1c(NC(=O)C(C)OC(=O)COc2ccc(C#N)cc2)c(=O)n(-c2ccccc2)n1C` (stereo not drawn), the cell number change is -2.89%. The AC50 under setting [2] is 4.11 µM [falling, full curve, poor fit].
In the case of `O=C(Cn1nnc(-c2ccccc2)n1)NNC(=O)c1ccc(Br)cc1`, the cell number change is -72.5%. In addition, the AC50 under setting [1] is 29.1 µM [falling, single point]. In addition, the AC50 under setting [2] is 25.9 µM [falling, single point].
Turning to `COc1ccc(OCCSCc2nnc(NC(=O)Nc3ccc(Cl)cc3)s2)cc1`, the cell number change is 63.8%. Under setting [1], the AC50 was 4.11 µM [rising, full curve, poor fit]. In addition, the AC50 under setting [2] is 6.51 µM [rising, partial curve, poor fit].
For `C/C(=N/NC(=O)CCCOc1ccc(Cl)cc1Cl)c1ccc(C)o1`, the cell number change is -33.3%. The half-maximal activity concentration (AC50) under setting [1] is 0.0731 µM [falling, full curve, poor fit].
In the case of `O=C(CSc1nc(C2CC2)nc2ccccc12)Nc1ccccc1Cl`, the cell number change was -10.3%. Besides, the concentration at half-maximal activity (AC50) under setting [2] is 5.8 µM [rising, partial curve].
Take `COc1ccccc1CCNC(=O)C(=O)NCC1OCCN1S(=O)(=O)c1ccc(F)cc1` (stereo not drawn): the cell number change was -8.66%. Further, under setting [1], the half-maximal activity concentration (AC50) was 0.58 µM [falling, single point]. Further, the AC50 under setting [2] was 20.6 µM [rising, single point].
In the case of `COc1ccc(CC2SC(N)=NC2=O)cc1` (stereo not drawn), the cell number change came to 32.8%. The AC50 under setting [1] is 25.9 µM [rising, partial curve, poor fit].
Turning to `CC1(c2ccccc2)NC(=O)N(CC(=O)NCc2ccc3c(c2)OCO3)C1=O` (stereo not drawn), the cell number change is 27.1%. In addition, the AC50 under setting [2] is 1.3 µM [rising, full curve].
On to `O=C(NCCCO)c1nnc(Cc2c(F)cccc2Cl)o1`, for which the cell number change is -46.5%. In addition, the AC50 under setting [1] is 20.6 µM [falling, single point]. For the same compound, the AC50 under setting [2] is 29.1 µM [falling, single point].

Broadly, the AC50 is the midpoint of the concentration-response curve, whichever way the signal moves.

Source of the values: PubChem BioAssay AID2685 (National Center for Advancing Translational Sciences (NCATS), 2010).
